Measured values published in PubChem BioAssay AID504465 (National Center for Advancing Translational Sciences (NCATS), 2011).
The whole screen tested about 2,100 compounds, of which about 210 (10%) were called active. Inconclusive means that the source gave no clear call. Such entries were picked first, then a sample of the others. The call rests on the fitted dose curve; in most records, active means well fitted inhibition curve with a large enough effect; inconclusive means small, poorly fitted or top-dose-only effect, or effect the other way; inactive means no such curve, though single readings can be large or run the other way. Potencies beside an inconclusive call are fits to weak or partial responses and may not hold up.

assay: IN Cell qHTS Assay for Inhibitors of the mTORC1 Signaling Pathway in MEF (Tsc2-/-, p53-/-) Cells: Sytravon; conditions: phospho-rpS6 immunofluorescence, 24 h; activity, negative = inhibition: at 38.3 µM (top of the series); further: nearly all actives have a fitted effect of over 60% in size
Excerpt: NIH Molecular Libraries Probe Production Centers Network [MLPCN] NIH Chemical Genomics Center [NCGC] MLPCN Grant: NS059428-01 Assay Submitter (PI): Blenis, John; Hoffman, Greg; Harvard University NCGC Assay Overview: Thee mammalian target of rapamycin (mTOR) is an intracellular serine/threonine kinase Aberrant regulation of mTOR signaling plays a causative role in a number of human diseases, including cancer, benign tumors such as lymphangioleiomyomatosis (LAM) and Tuberous Sclerosis Complex (TSC), and metabolic diseases such as diabetes and obesity. This project aims to identify inhibitors of ribosomal protein S6 (rpS6) phosphorylation. The phosphorylation of rpS6 is a key event downstream of mTOR activation. The assay uses a phospho-specific antibody of phospho-rpS6 to detect inhibitors of mTOR activation. Mutations in the Tsc1 and Tsc2 genes are the underlying genetic lesions responsible for TSC, causing constitutive activation of the mTORC1 pathway and leading to profound effects on cell metabolism. Aberrant metabolism in cancer has recently received significant attention as a target to develop therapeutic agents in the treatment of cancer1. As Tsc2-/- cells have lost the ability to respond to energy and growth factor deprivation, these cells are unable to properly down regulate cellular biosynthetic processes in response to metabolic stress, and are thus extremely sensitive to glucose deprivation-induced death.2 A central goal of this project is to explore the unique cell survival and metabolic properties of cells with Tsc1 or Tsc2 by screening for compounds that selectively target the Tsc2-/- MEFs by screening both Tsc2-/- and WT MEF cell lines. We hope to better understand these aspects of TSC physiology in order to exploit them for therapeutic benefit.
NCGC IN Cell Assay Protocol: For quantitative high throughput analysis of mTORC1 signaling, we developed a cell-based assay for immuno-fluorescence based detection of rpS6 phosphorylation on the Acumen Explorer that will be used a platform for the primary small molecule screen. Mouse embryonic fibroblasts (MEFs) are cultured in 1536-well plates using DMEM + 10% FBS. Twenty-four hrs after plating, test compounds (solubilized in DMSO) are delivered and incubated with the cells for 24 hrs at 37 degree Celsius. Following the incubation, media with compound is aspirated and the cells are fixed in 4% paraformaldehyde (PFA) containing PBS + 0.2% TX-100. Next, PFA is aspirated, cells are washed two times with PBS plus 0.2% TX-100 and the cells are blocked for 1 hr at room temperature (blocking buffer: LiCOR Blocking Buffer plus 0.2% TX-100). This is followed by aspiration and staining with Alexa-488 conjugated-phospho-rpS6 Ser235/236 antibody for 2 hours at room temperature (Cell Signaling Technology # 4803, 1:50 dilution in blocking buffer). Cells are washed two times with PBS plus 0.2% TX-100, and stained with 10 uM propidium iodide (PI) for 20-25 minutes for cell number measurement (1:500 dilution of Hoescht staining is also added for IN Cell imaging). Active wells which are selected (based on Acumen results) are imaged on the IN Cell 1000 (GE Healthcare) using the D360/40X and HQ480/40X excitation filters for the Hoechst and Alexa-488 cytoplasmic stains, respectively. The fluorescence emission filters used were HQ460/40M and HQ535/50M for the Hoechst and Alexa-488 cytoplasmic stains, respectively. The normalized phospho-S6 staining is calculated as the ratio of […] for the single concentration rapamycin control (7.5 nM) and DMSO columns. […] Inhibition of the pathway is defined based on the normalized phospho-S6 intensity in rapamycin treated cells. Each treatment is reported as the % positive cells in the well, where thresholds are defined by selecting wells with the highest and lowest signal and differentiating between the % non-active and % active populations. […]
Potency means the concentration at half of the fitted maximal effect.

| Structure (SMILES) | Potency | activity, negative = inhibition |
| --- | --- | --- |
| O=C(Cn1c(=O)c2cccn2c2ccc(F)cc21)N1CCN(c2ccc(F)cc2)CC1 | inconclusive: 26.1 µM [falling, partial curve, poor fit] | – |
| Cc1ccc(CNCc2c(C(=O)O)n(Cc3ccc(C)cc3)c3cc(C)ccc23)cc1 | – | inactive: -13.3% |
| O=S(=O)(NCC(Nc1ccc(Cl)cc1)c1ccccc1)c1ccccc1 (configuration not stated) | inconclusive: 23.3 µM [falling, partial curve, poor fit] | – |
| CCc1nn(CC(=O)N2CCN(c3cccc(C(F)(F)F)c3)CC2)c(=O)c2cccn12 | inconclusive: 5.85 µM [falling, partial curve] | – |
| Cn1nnnc1SCCCNCc1cccc(OCc2ccccc2Cl)c1 | – | inactive: -25.9% |
| CCN1C(=O)C(Cc2nc3ccccc3c(=O)n2-c2ccccc2)c2cc(Br)ccc21 (configuration not stated) | inconclusive: 2.07 µM [falling, full curve, poor fit] | – |
| CC(=O)N1CCOc2cc(S(=O)(=O)N(C)Cc3ccccc3)c(Cl)cc21 | inconclusive: 26.1 µM [falling, single point] | – |
| Cc1ccc(C)c(N2CCN(CCCNC(=O)Nc3ccc(Cl)cc3)CC2)c1 | inconclusive: 23.3 µM [falling, single point] | – |
| CSc1nc2sc3c(c2c(=O)n1-c1ccccc1)CCC(C(C)(C)C)C3 (configuration not stated) | inconclusive: 26.1 µM [falling, single point] | – |
| COc1cccc(C(=O)Nc2ccccc2-c2nnc(-c3cccc(OC)c3)o2)c1 | – | inactive: -24.5% |
| Cn1nc(C(=O)N2CCN(c3ccc(F)cc3)CC2)c2c1-c1ccccc1SC2 | inconclusive: 18.5 µM [falling, single point] | – |
| CCNC(=O)c1c(NC(=O)c2nc(S(=O)(=O)CC)ncc2Cl)sc2c1CCCC2 | active: 2.07 µM | – |
| CCCOc1ccc(C(=O)Nc2ccc(NC(=O)c3ccccc3)c(C)c2)cc1 | inconclusive: 16.5 µM [falling, single point] | – |
| COc1ccc(CNCc2c(C(=O)O)n(Cc3ccc(F)cc3)c3cc(C)ccc23)cc1OC | inconclusive: 16.5 µM [falling, single point] | – |
| CN(C)CCN(Cc1ccco1)C(=O)c1oc2ccccc2c1NC(=O)c1cccc(F)c1 | inconclusive: 26.1 µM [falling, single point] | – |
| Oc1ccc(NCc2ccc(OCc3ccccc3)cc2)cc1 | inconclusive: 26.1 µM [falling, single point] | – |
| CCN(CC)S(=O)(=O)c1ccc2c(c1)N(CC(=O)NCCCN1CCN(c3cc(Cl)ccc3C)CC1)C(=O)CO2 | inconclusive: 8.26 µM [falling, partial curve, poor fit] | – |

Shown tab-delimited: 4 of the compounds above
Structure (SMILES)	Potency	activity, negative = inhibition
CCc1nn(CC(=O)N2CCN(c3cccc(C(F)(F)F)c3)CC2)c(=O)c2cccn12	inconclusive: 5.85 µM [falling, partial curve]	–
Cn1nnnc1SCCCNCc1cccc(OCc2ccccc2Cl)c1	–	inactive: -25.9%
CCN1C(=O)C(Cc2nc3ccccc3c(=O)n2-c2ccccc2)c2cc(Br)ccc21 (configuration not stated)	inconclusive: 2.07 µM [falling, full curve, poor fit]	–
CC(=O)N1CCOc2cc(S(=O)(=O)N(C)Cc3ccccc3)c(Cl)cc21	inconclusive: 26.1 µM [falling, single point]	–
